# Assay results as given in PubChem BioAssay AID504847 (National Center for Advancing Translational Sciences (NCATS), 2011).
# The chains behind the UniProt entries cited, without tags or fusion partners. Where a name states a change or a piece, a line headed by the entry shows the natural chain unless it says otherwise.
# UniProt P11473: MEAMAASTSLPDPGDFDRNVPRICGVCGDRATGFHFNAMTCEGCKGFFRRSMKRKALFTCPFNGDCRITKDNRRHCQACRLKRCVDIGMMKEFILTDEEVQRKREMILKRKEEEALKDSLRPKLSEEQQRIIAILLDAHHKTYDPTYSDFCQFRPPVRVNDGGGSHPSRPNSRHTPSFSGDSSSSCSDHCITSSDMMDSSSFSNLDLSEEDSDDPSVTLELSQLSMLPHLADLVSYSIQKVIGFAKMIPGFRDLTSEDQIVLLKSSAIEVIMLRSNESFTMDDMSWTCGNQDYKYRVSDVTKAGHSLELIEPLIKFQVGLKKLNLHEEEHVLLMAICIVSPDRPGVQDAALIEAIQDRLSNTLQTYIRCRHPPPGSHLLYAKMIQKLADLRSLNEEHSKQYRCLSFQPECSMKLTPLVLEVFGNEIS
# In all, about 400,000 compounds went through this assay and about 3,700 (0.93%) were called active. Inconclusive results, whose numbers are uncertain, are shown with a selection of clear calls. Calls come from the whole dose curve; as a rule, active = well fitted inhibition curve with a large enough effect; inconclusive = small, poorly fitted or top-dose-only effect, or another doubt; inactive = no such curve, though single readings can be large or run the other way. Potencies of inconclusive entries are doubtful fits and often do not repeat.
# Target: Vitamin D3 receptor (Homo sapiens) (UniProt P11473)
# Assay: Inhibitors of the vitamin D receptor (VDR): qHTS
# Conditions: VDR-SRC2-3 peptide fluorescence polarization, 2 h; max response, negative = inhibition: hits give low values
# How it was run: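 Signal is fluorescence polarization, reporting how far test compounds block the interaction of VDR with the SRC2-3 coregulator peptide after a 2 h room-temperature incubation.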
# % is set by controls: 0 for no effect and ±100 for the full control effect; potency is the fitted concentration of half-maximal effect.
SMILES,"max response, negative = inhibition",Potency
O=C(CSc1cccc[n+]1[O-])c1cc(Cl)ccc1Cl,inactive: -12.8%,
CCCCn1c(=O)[nH]c(=O)c2c1nc(Cn1ncc(Cl)c(Cl)c1=O)n2CCC,,"inconclusive: 89.1 µM [inhibitor, partial curve, poor fit]"
Brc1cnc2nc[nH]c2c1,,"inconclusive: 3.98 µM [inhibitor, full curve, poor fit]"
COc1ccc(C(=O)NC2CCN(Cc3ccccc3)C2)cc1S(=O)(=O)N1CCOCC1 (centres undefined),,"inconclusive: 5.62 µM [inhibitor, full curve, poor fit]"
CCOC(=O)N1CC=C2C(C#N)=C(N)C(C#N)(C#N)[C@H](c3cccs3)[C@H]2C1,,"inconclusive: 50.1 µM [inhibitor, partial curve, poor fit]"
O=C(C=Cc1ccc2c(c1)OCO2)c1ccccc1,,active: 39.8 µM
CCCC12CN3CC(C)(CN(C1)C3c1ccco1)C2=O (centres undefined),,"inconclusive: 50.1 µM [inhibitor, partial curve, poor fit]"
CCCc1nc2sc3c(N4CCC(C)CC4)ncnc3c2c2c1CCCC2,inactive: -2.09%,
CCN(CC1COc2ccccc2O1)C(=O)CN1C(=O)NC(C)(c2ccccc2)C1=O (centres undefined),,"inconclusive: 28.2 µM [inhibitor, partial curve, poor fit]"
COc1ccc(NC(=O)CSc2nc(C)cs2)c([N+](=O)[O-])c1,,"inconclusive: 79.4 µM [inhibitor, single point]"
Cc1ccc(-c2ccc(/C=N/N=C3/NC(=O)C(CC(=O)O)S3)o2)c([N+](=O)[O-])c1 (centres undefined),,"inconclusive: 79.4 µM [inhibitor, single point]"
CC(C)OC(=O)c1c(N)sc2c1CCCC2,,"inconclusive: 70.8 µM [inhibitor, partial curve, poor fit]"
COc1cc(CNCCc2c[nH]c3ccccc23)ccc1OCc1ccc(F)cc1,inactive: -6.17%,
Cc1c(C(=O)c2no[n+]([O-])c2C(=O)c2cnn(C)c2C)cnn1C,,"inconclusive: 17.8 µM [inhibitor, full curve, poor fit]"
CCn1nc([N+](=O)[O-])c(C(C#N)c2nc3cc(C(F)(F)F)ccc3s2)c(Cl)c1=O (centres undefined),,"inconclusive: 79.4 µM [inhibitor, partial curve, poor fit]"
c1ccc(-c2nc(-c3cccc4ccccc34)c(Nc3ccc4ccccc4c3)o2)cc1,,"inconclusive: 89.1 µM [inhibitor, single point]"
O=C1C=CC(=O)N1CCCCCCN1C(=O)C=CC1=O,,active: 3.16 µM
COc1ccc2nc(SCC(=O)N3CCCCC3)c(C#N)cc2c1,inactive: 0.854%,
Nc1scc2c(C(=O)O)nn(-c3ccccc3)c(=O)c12,,"inconclusive: 14.1 µM [inhibitor, full curve, poor fit]"
O=C(NC1CCCCC1)C(c1cccnc1)N(CCc1ccccc1)C(=O)Cc1cccs1 (centres undefined),,"inconclusive: 50.1 µM [inhibitor, partial curve, poor fit]"
Oc1nc(Nc2ccccc2)sc1/C=C1\C=Nc2ccccc21,inactive: -7.66%,
Cc1[nH]c2ccccc2c1CCCO,inactive: 0.222%,
COc1ccc(S(=O)(=O)Nc2cc(SCC(=O)O)c(O)c3ccccc23)cc1,,"inconclusive: 50.1 µM [inhibitor, partial curve, poor fit]"

SMILES,"max response, negative = inhibition",Potency
CS(=O)(=O)N1CCc2ccc(NC(=O)C3CCCO3)cc2C1 (centres undefined),inactive: 7.01%,
O=S(=O)(NC(=S)Nc1ccccc1)c1ccc(F)cc1,,"inconclusive: 35.5 µM [inhibitor, partial curve, poor fit]"
O=C1/C(=C/c2cccnc2)Oc2cc(OS(=O)(=O)c3ccccc3)ccc21,,active: 50.1 µM
COc1ccc(C2/C(=C(/O)c3ccc4c(c3)CC(C)O4)C(=O)C(=O)N2CCCn2ccnc2)cc1OC (centres undefined),inactive: -1.53%,
N=C(N)n1c(N)nc2ccccc2c1=O,inactive: -2.98%,
Cn1c(-c2ccccc2)c(C(=O)CCl)c2ccccc21,,active: 70.8 µM
Cc1ccc(-c2nc(S(=O)(=O)c3ccc(C)cc3)c(N3CCOCC3)o2)cc1,,"inconclusive: 89.1 µM [inhibitor, single point]"
CC(NC(=O)COC(=O)c1ccccc1F)C1CC2CCC1C2 (centres undefined),,"inconclusive: 89.1 µM [inhibitor, single point]"
Cc1cccc(C(=O)NCc2cn3cccc(C)c3n2)c1,inactive: 9.9%,
Cc1c(Cl)cccc1-c1ccc(CNCc2ccccn2)o1,inactive: -20.4%,
COc1ccc(C(CNC(=O)CNC(=O)c2cccc(C)c2)N2CCOCC2)cc1 (centres undefined),inactive: -0.187%,
COc1ccccc1-c1cncnc1NCCNC(C)=O,,"inconclusive: 44.7 µM [inhibitor, partial curve]"
CCN1C/C(=C/c2cccc([N+](=O)[O-])c2)C(=O)/C(=C/c2cccc([N+](=O)[O-])c2)C1,,active: 10 µM
O=C(C[C@@H]1C/C=C\C[C@H](Cc2ccc(F)cc2)C(=O)OC[C@H]2CCCN2C1=O)NCCO,inactive: 10.6%,
O=c1[nH]cnc2c1sc(=S)n2-c1ccccc1,,"inconclusive: 70.8 µM [inhibitor, single point]"
FC(F)(F)c1cc(-c2ccco2)nc(NCc2ccccc2)n1,inactive: -12.5%,
CN(Cc1ccco1)c1ccnc(-c2cccc(C#N)c2)n1,,active: 35.5 µM
O=C(Oc1ccccc1)N1CCC2(CCCN(c3ccccc3)C2)CC1,,"inconclusive: 7.94 µM [inhibitor, full curve, poor fit]"
CC(C)N(C(=O)CS(=O)(=O)c1ccc(Cl)c(Cl)c1)C(C)C,,"inconclusive: 89.1 µM [inhibitor, single point]"
NS(=O)(=O)c1ccc(NC(=S)NCc2ccccc2)cc1,,"inconclusive: 79.4 µM [inhibitor, partial curve, poor fit]"
S=C(c1cn(Cc2ccc(Br)cc2)c2ccccc12)N1CCOCC1,,"inconclusive: 50.1 µM [inhibitor, partial curve]"
O=C1CCC/C(=N/Nc2ccc(Cl)cc2)C1,,"inconclusive: 79.4 µM [inhibitor, partial curve, poor fit]"
Cc1ccccc1NC(=O)CN1CCN(C(=O)c2ccco2)CC1,inactive: -5.25%,

# Full records, looked up by structure:
# O=C1CCC/C(=N/Nc2ccc(Cl)cc2)C1 in the list: Potency: inconclusive: 79.4 µM [inhibitor, partial curve, poor fit]
# COc1ccccc1-c1cncnc1NCCNC(C)=O in the list: Potency: inconclusive: 44.7 µM [inhibitor, partial curve]
# Cc1cccc(C(=O)NCc2cn3cccc(C)c3n2)c1 in the list: max response, negative = inhibition: inactive: 9.9%

# Going on with the list:

SMILES,"max response, negative = inhibition",Potency
O=C(CS(=O)(=O)c1ccccc1)Nc1ccc(Cl)cn1,inactive: -22.7%,
CCN=C1NN=C(c2ccc(C)cc2)CS1,,"inconclusive: 79.4 µM [inhibitor, partial curve]"
COC(=O)C1=C(C)NC(=O)NC1c1ccc(-c2ccc(F)cc2)o1 (centres undefined),,"inconclusive: 15.8 µM [inhibitor, partial curve, poor fit]"
CC(NC(=O)c1cccnc1)C(c1cccs1)N1CCN(c2ccccc2F)CC1 (centres undefined),inactive: 25%,
O=[N+]([O-])c1cccc(OCc2cn3cccnc3n2)c1,inactive: -3.23%,
CC(=O)Nc1ccc(C(=O)CSc2nnc(-c3ccc(O)cc3)n2CC2CCCO2)cc1 (centres undefined),inactive: -2.79%,
Cc1oc(-c2ccccc2F)nc1CSCC(=O)NC1CC1,,"inconclusive: 28.2 µM [inhibitor, partial curve, poor fit]"
COc1ccc(-c2nc(SCc3ccc(C#N)cc3)[nH]c(=O)c2C#N)cc1,,"inconclusive: 112 µM [inhibitor, partial curve, poor fit]"
CC(=O)N(\C=C/C=C/C=C1\Sc2ccccc2C1=O)c1ccccc1,,"inconclusive: 100 µM [inhibitor, single point]"
CCOC(=O)C1=C(C)N(C)C(=O)NC1c1cccc2ccccc12 (centres undefined),,"inconclusive: 10 µM [inhibitor, partial curve, poor fit]"
CC(C)OCCCn1c(=N)c(C(N)=S)cc2c(=O)n3ccccc3nc21,,"inconclusive: 89.1 µM [inhibitor, single point]"
Cc1ccccc1OCC(=O)Nc1nnc(S(=O)(=O)N(C)c2ccccc2)s1,inactive: -0.792%,
CC(Oc1ccc2ccccc2c1)C(=O)NNC(=S)NC(=O)c1ccco1 (centres undefined),,"inconclusive: 100 µM [inhibitor, single point]"
COc1ccc(NC(=O)N2CCCC3(CCN(S(C)(=O)=O)CC3)C2)cc1,inactive: 8.48%,
O=C(Nc1ccccc1)C(Cl)C(=O)c1ccccc1 (centres undefined),,"inconclusive: 20 µM [inhibitor, full curve, poor fit]"
CN(C)C(=O)c1ccc(-c2cncnc2N(C)Cc2ccco2)cc1,,"inconclusive: 50.1 µM [inhibitor, partial curve]"
Clc1ccc(SCNc2ccccc2Cl)cc1,,"inconclusive: 39.8 µM [inhibitor, partial curve, poor fit]"
CCOC(=O)Cn1cc(/C=N/N2C(=O)C3C4C=CC(C4)C3C2=O)c2ccccc21 (centres undefined),,"inconclusive: 10 µM [inhibitor, single point]"
COc1ccc2oc(=N)c(C(=O)Nc3ccc(Br)cc3)cc2c1,,"inconclusive: 63.1 µM [inhibitor, partial curve, poor fit]"
O=C(NC1(O)C(=O)c2ccccc2C1=O)c1ccccc1,,"inconclusive: 11.2 µM [inhibitor, partial curve, poor fit]"
CC(=O)N(CCC(c1ccco1)C(C)C)Cc1ccc(Cl)cc1 (centres undefined),,"inconclusive: 79.4 µM [inhibitor, single point]"
CCOc1cc(-c2sc(Nc3ccccc3)n[n+]2-c2ccc(F)cc2)ccc1OC,inactive: 1.08%,
O=C(C=Cc1cccnc1)c1ccccc1,,"inconclusive: 50.1 µM [inhibitor, partial curve, poor fit]"
